Experimental data from article PMC10617613.

The chains behind the UniProt entries cited, without tags or fusion partners.
UniProt P08670: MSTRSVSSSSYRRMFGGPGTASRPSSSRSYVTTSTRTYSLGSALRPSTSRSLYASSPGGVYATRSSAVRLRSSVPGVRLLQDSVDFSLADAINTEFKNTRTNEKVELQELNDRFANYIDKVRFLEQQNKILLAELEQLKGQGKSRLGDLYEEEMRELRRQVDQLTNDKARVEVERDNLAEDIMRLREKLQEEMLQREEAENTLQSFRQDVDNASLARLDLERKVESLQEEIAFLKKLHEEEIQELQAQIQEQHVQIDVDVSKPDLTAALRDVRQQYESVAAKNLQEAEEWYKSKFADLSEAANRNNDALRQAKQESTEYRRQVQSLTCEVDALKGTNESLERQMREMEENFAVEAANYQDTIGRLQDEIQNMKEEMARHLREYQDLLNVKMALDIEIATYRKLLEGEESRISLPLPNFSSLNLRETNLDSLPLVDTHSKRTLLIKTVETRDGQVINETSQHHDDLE

T1: GORAB fused to the biotin ligase BirA (UniProt Q5T7V8)
T1 sequence: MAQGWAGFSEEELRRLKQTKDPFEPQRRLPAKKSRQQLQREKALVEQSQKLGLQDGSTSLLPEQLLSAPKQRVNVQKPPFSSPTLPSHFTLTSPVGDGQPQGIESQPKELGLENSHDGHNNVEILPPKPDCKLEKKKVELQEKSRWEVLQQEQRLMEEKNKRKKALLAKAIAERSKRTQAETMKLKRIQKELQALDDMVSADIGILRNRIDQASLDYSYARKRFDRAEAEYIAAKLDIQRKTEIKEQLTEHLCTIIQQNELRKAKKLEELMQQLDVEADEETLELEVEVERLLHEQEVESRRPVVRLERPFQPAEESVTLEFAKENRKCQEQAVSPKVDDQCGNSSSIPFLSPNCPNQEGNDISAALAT

B1: Scyl1 (protein, UniProt Q96KG9 1-808)
chain: MWFFARDPVRDFPFELIPEPPEGGLPGPWALHRGRKKATGSPVSIFVYDVKPGAEEQTQVAKAAFKRFKTLRHPNILAYIDGLETEKCLHVVTEAVTPLGIYLKARVEAGGLKELEISWGLHQIVKALSFLVNDCSLIHNNVCMAAVFVDRAGEWKLGGLDYMYSAQGNGGGPPRKGIPELEQYDPPELADSSGRVVREKWSADMWRLGCLIWEVFNGPLPRAAALRNPGKIPKTLVPHYCELVGANPKVRPNPARFLQNCRAPGGFMSNRFVETNLFLEEIQIKEPAEKQKFFQELSKSLDAFPEDFCRHKVLPQLLTAFEFGNAGAVVLTPLFKVGKFLSAEEYQQKIIPVVVKMFSSTDRAMRIRLLQQMEQFIQYLDEPTVNTQIFPHVVHGFLDTNPAIREQTVKSMLLLAPKLNEANLNVELMKHFARLQAKDEQGPIRCNTTVCLGKIGSYLSASTRHRVLTSAFSRATRDPFAPSRVAGVLGFAATHNLYSMNDCAQKILPVLCGLTVDPEKSVRDQAFKAIRSFLSKLESVSEDPTQLEEVEKDVHAASSPGMGGAAASWAGWAVTGVSSLTSKLIRSHPTTAPTETNIPQRPTPEGVPAPAPTPVPATPTTSGHWETQEEDKDTAEDSSTADRWDDEDWGSLEQEAESVLAQQDDWSTGGQVSRASQVSNSDHKSSKSPESDWSSWEAEGSWEQGWQEPSSQEPPPDGTRLASEYNWGGPESSDKGDPFATLSARPSTQPRPDSWGEDNWEGLETDSRQVKAELARKKREERRREMEAKRAERKVAKGPMKLGARKLD
B2: COPI subunit γ2-COP (protein, UniProt Q9UBF2 1-871)
chain: MIKKFDKKDEESGSGSNPFQHLEKSAVLQEARIFNETPINPRRCLHILTKILYLLNQGEHFGTTEATEAFFAMTRLFQSNDQTLRRMCYLTIKEMATISEDVIIVTSSLTKDMTGKEDVYRGPAIRALCRITDGTMLQAIERYMKQAIVDKVSSVSSSALVSSLHMMKISYDVVKRWINEAQEAASSDNIMVQYHALGVLYHLRKNDRLAVSKMLNKFTKSGLKSQFAYCMLIRIASRLLKETEDGHESPLFDFIESCLRNKHEMVIYEAASAIIHLPNCTARELAPAVSVLQLFCSSPKPALRYAAVRTLNKVAMKHPSAVTACNLDLENLITDSNRSIATLAITTLLKTGSESSVDRLMKQISSFVSEISDEFKVVVVQAISALCQKYPRKHSVMMTFLSNMLRDDGGFEYKRAIVDCIISIVEENPESKEAGLAHLCEFIEDCEHTVLATKILHLLGKEGPRTPVPSKYIRFIFNRVVLENEAVRAAAVSALAKFGAQNESLLPSILVLLQRCMMDTDDEVRDRATFYLNVLQQRQMALNATYIFNGLTVSVPGMEKALHQYTLEPSEKPFDMKSIPLAMAPVFEQKAEITLVATKPEKLAPSRQDIFQEQLAAIPEFLNIGPLFKSSEPVQLTEAETEYFVRCIKHMFTNHIVFQFDCTNTLNDQLLEKVTVQMEPSDSYEVLSCIPAPSLPYNQPGICYTLVRLPDDDPTAVAGSFSCTMKFTVRDCDPNTGVPDEDGYDDEYVLEDLEVTVSDHIQKVLKPNFAAAWEEVGDTFEKEETFALSSTKTLEEAVNNIITFLGMQPCERSDKVPENKNSHSLYLAGIFRGGYDLLVRSRLALADGVTMQVTVRSKERTPVDVILASVG

The molecules below were run against T1, GORAB fused to the biotin ligase BirA (assay: proximity labelling; BioID: GORAB–BirA stably expressed in HeLaM cells or human skin fibroblasts, 50 µM biotin for 24 h; biotinylated proteins collected on streptavidin-Dynabeads, on-bead tryptic digest, LC-MS/MS).

| binding | Molecule |
| --- | --- |
| binds | Vimentin (from UniProt P08670 1-466) |
| binds | B1 |
| binds | B2 |

No constants are given. Whether binding was seen depends on the method and setting. Binding seen in cells or lysates may run through a third protein. A yes stands for co-enrichment or nearness to the bait. Other partners may have been found. Where a sequence is shown, tags or fusion partners need not be part of it.
